What all share (experiment): pull-down; 35S-methionine labeled in vitro translated protein incubated with GST fusion protein on beads in NET-N buffer (50 mM Tris pH 8.0, 150 mM NaCl, 0.5% NP-40) 1.5 h at 4°C; SDS-PAGE, autoradiography; only the target purified
Test [1] deals with GST-ΔINCENP C3 (aa 822–919) (human).
Test [2] has as its target GST-ΔINCENP C6 (aa 822–897) (human).
Test [3] concerns the target GST-ΔINCENP C4 (aa 855–919) (human).
The target in test [4] is GST-ΔINCENP C5 (aa 878–919) (human).

These results are taken from article PMC4917241.

These are yes or no findings as the source states them, for the method shown. Binding seen in cells or lysates may run through a third protein. A result given as binding can be weak or reduced; the word gives no strength.

B1: 35S-labeled Aurora-C full length (in vitro translated) (enzyme, UniProt Q9UQB9 1-309)
chain: MSSPRAVVQLGKAQPAGEELATANQTAQQPSSPAMRRLTVDDFEIGRPLGKGKFGNVYLARLKESHFIVALKVLFKSQIEKEGLEHQLRREIEIQAHLQHPNILRLYNYFHDARRVYLILEYAPRGELYKELQKSEKLDEQRTATIIEELADALTYCHDKKVIHRDIKPENLLLGFRGEVKIADFGWSVHTPSLRRKTMCGTLDYLPPEMIEGRTYDEKVDLWCIGVLCYELLVGYPPFESASHSETYRRILKVDVRFPLSMPLGARDLISRLLRYQPLERLPLAQILKHPWVQAHSRRVLPPCAQMAS
modifications: 35S-methionine label
Take B1: the binding entry in test [1] is on record as “binds”; in test [2] it was “binds”; in test [3], “binds weakly”; in test [4] it was “binds weakly”.
